Data as given in patent US20130180014A1, “Pyridine Compounds for Controlling Invertebrate Pests III” (BASF SE, priority 2010, published 2013).
Some results were stated once for a whole list of compounds, not compound by compound.

How the values were obtained:
Type in all cases: in vivo
Megoura viciae = test: Vetch aphid, bean leaf disk in microtiterplate; conditions: test solution 2500 mg/L; leaf disks sprayed with 2.5 μl; 6 days
Procedure: The active compounds were formulated in 1:3 (vol/vol) DMSO:water with different concentrations of formulated compounds.
Bean leaf disks were placed into microtiterplates filled with 0.8% agar-agar and 2.5 ppm OPUS™. The leaf disks were sprayed with 2.5 μl of the test solution and 5 to 8 adult aphids were placed into the microtiterplates which were then closed and kept at 23±1° C. and 50±5% relative humidity under fluorescent light for 6 days. Mortality was assessed on the basis of vital, reproduced aphids. Aphid mortality and fecundity was then visually assessed.

Aphis craccivora = test: Cowpea aphid, spray on potted cowpea plants; conditions: 300 ppm; cowpea plants sprayed; assessed after 24, 72 and 120 hours; in comparison with untreated controls
Procedure: The active compounds were formulated in 50:50 (vol/vol) acetone:water. The test solution was prepared at the day of use.
Potted cowpea plants colonized with 100-150 aphids of various stages were sprayed after the pest population had been recorded. Population reduction was assesed after 24, 72, and 120 hours.

Myzus persicae [1] = test: Green peach aphid, systemic, artificial diet under membrane in 96-well plate; conditions: 2500 ppm, 3 days, in comparison with untreated controls
From the text: For evaluating control of green peach aphid (Myzus persicae) through systemic means the test unit consisted of 96-well-microtiter plates containing liquid artificial diet under an artificial membrane.
The compounds were formulated using a solution containing 75% vol/vol water and 25% vol/vol DMSO. Different concentrations of formulated compounds were pipetted into the aphid diet, using a custom built pipetter, at two replications. After application, 5 to 8 adult aphids were placed on the artificial membrane inside the microtiter plate wells. The aphids were then allowed to suck on the treated aphid diet and incubated at about 23+1° C. and about 50+5% relative humidity for 3 days. Aphid mortality and fecundity was then visually assessed.

Anthonomus grandis = test: Boll weevil, insect diet with eggs in 24-well microtiter plate; conditions: test solution 2500 mg/L; 20 μl sprayed onto insect diet; 5 days
Aphis gossypii [2] = test: Cotton aphid, mixed life stages, method b) electrostatic spray; conditions: 300 ppm; cotton plants sprayed; after 5 days; in comparison with untreated controls
Myzus persicae [3] = test: Green peach aphid, mixed life stages, method b) electrostatic spray on bell pepper; conditions: 300 ppm; bell pepper plants sprayed; after 5 days; in comparison with untreated controls
Aphis gossypii [4] = test: Cotton aphid, mixed life stages, method a) cotyledon dip; conditions: 300 ppm; cotton cotyledons dipped; in comparison with untreated controls
From the text: (§1) The active compounds were formulated in 50:50 (vol/vol) acetone:water and 100 ppm Kinetica™ surfactant.
Cotton plants at the cotyledon stage (one plant per pot) were infested by placing a heavily infested leaf from the main colony on top of each cotyledon. The aphids were allowed to transfer to the host plant overnight, and the leaf used to transfer the aphids was removed. The cotyledons were dipped in the test solution and allowed to dry. After days, mortality counts were made.

Myzus persicae [5] = test: Green peach aphid, mixed life stages, method a) pepper leaf dip; conditions: 300 ppm; pepper leaves dipped; after 5 days; in comparison with untreated controls
From the text: as §1
Pepper plants in the 2nd leaf-pair stage (variety ‘California Wonder’) were infested with approximately 40 laboratory-reared aphids by placing infested leaf sections on top of the test plants. The leaf sections were removed after 24 hr. The leaves of the intact plants were dipped into gradient solutions of the test compound and allowed to dry. Test plants were maintained under fluorescent light (24 hour photoperiod) at about 25° C. and 20-40% relative humidity. Aphid mortality on the treated plants, relative to mortality on check plants, was determined after 5 days.

Nilaparvata lugens = test: Brown planthopper, spray on potted rice seedlings; conditions: 300 ppm; rice seedlings sprayed; after 72 hours; in comparison with untreated controls

Structure (SMILES): Cc1ncc(C(=O)N(C)c2cccnc2)cn1 [Example 41]
- mortality (Megoura viciae): at least 90%
- mortality (Aphis craccivora): at least 90%
- mortality (Myzus persicae [1]): 100%

Structure (SMILES): CCc1ncnc(C(=O)N(C)c2cccnc2)c1C [Example 37]
- mortality (egg and larval) (Anthonomus grandis): at least 50%

Structure (SMILES): Cc1c(C(=O)Nc2cccnc2)ncnc1C1CC1 [Example 30]
- mortality (Aphis gossypii [2]): at least 75%
- mortality (Myzus persicae [3]): at least 90%
- mortality (Aphis craccivora): at least 90%

Structure (SMILES): O=C(Nc1cccnc1)c1cnc(Cl)cc1C(F)(F)F [Example 14]
- mortality (Aphis gossypii [4]): at least 75%
- mortality (egg and larval) (Anthonomus grandis): at least 50%
- mortality (Megoura viciae): at least 90%
- mortality (Aphis craccivora): at least 90%

Structure (SMILES): CN(C(=O)c1ccnnc1)c1cccnc1.O=S(=O)(O)C(F)(F)F [Example 43]
- mortality (Megoura viciae): at least 90%
- mortality (Aphis craccivora): at least 90%
- mortality (Myzus persicae [1]): 100%

Structure (SMILES): Cc1nc(C(F)(F)F)ncc1C(=O)Nc1cccnc1 [Example 23]
- mortality (Megoura viciae): at least 90%
- mortality (Aphis gossypii [2]): at least 75%
- mortality (Myzus persicae [3]): at least 90%
- mortality (Aphis craccivora): at least 90%
- mortality (Myzus persicae [1]): 100%

Structure (SMILES): O=C(Nc1cccnc1)c1ccc(C(F)(F)F)nc1Cl [Example 16]
- mortality (egg and larval) (Anthonomus grandis): at least 50%
- mortality (Aphis craccivora): at least 90%

Structure (SMILES): O=C(Nc1cccnc1)c1cccc(C(F)(F)F)n1 [Example 6]
- mortality (egg and larval) (Anthonomus grandis): at least 50%

Structure (SMILES): O=C(Nc1cccnc1)c1cnccn1 [Example 21]
- mortality (Myzus persicae [1]): 100%

Structure (SMILES): Cc1nc(CC(C)C)ncc1C(=O)N(C)c1cccnc1 [Example 35]
- mortality (Megoura viciae): at least 90%
- mortality (Aphis craccivora): at least 90%

Structure (SMILES): O=C(Nc1cccnc1)c1cnccc1C(F)(F)F [Example 12]
- mortality (Aphis gossypii [4]): at least 75%
- mortality (Megoura viciae): at least 90%
- mortality (Aphis craccivora): at least 90%
- mortality (Myzus persicae [1]): 100%

Structure (SMILES): O=C(Nc1cccnc1)c1cncnc1.O=S(=O)(O)C(F)(F)F [Example 46]
- mortality (Megoura viciae): at least 90%
- mortality (Aphis gossypii [2]): at least 75%
- mortality (Myzus persicae [3]): at least 90%
- mortality (Aphis craccivora): at least 90%
- mortality (Myzus persicae [1]): 100%

Structure (SMILES): O=C(Nc1cccnc1)c1ccnc(C(F)(F)F)c1 [Example 19]
- mortality (Aphis gossypii [4]): at least 75%
- mortality (egg and larval) (Anthonomus grandis): at least 50%
- mortality (Megoura viciae): at least 90%
- mortality (Myzus persicae [5]): at least 90%
- mortality (Aphis craccivora): at least 90%

Structure (SMILES): O=C(Nc1cccnc1)c1ccc(C(F)(F)F)nc1 [Example 17]
- mortality (Aphis gossypii [4]): at least 75%
- mortality (Megoura viciae): at least 90%
- mortality (Myzus persicae [5]): at least 90%
- mortality (Aphis craccivora): at least 90%
- mortality (Myzus persicae [1]): 100%

Structure (SMILES): O=C(Nc1cccnc1)c1ccccn1 [Example 1]
- mortality (Myzus persicae [1]): 100%

Structure (SMILES): Cc1ncc(C(=O)Nc2cccnc2)cn1 [Example 34]
- mortality (Megoura viciae): at least 90%

Structure (SMILES): O=C(Nc1cncc(C(F)(F)F)c1)c1ccccn1 [Example 4]
- mortality (Megoura viciae): at least 90%

Structure (SMILES): Cc1nc(C(C)(C)C)ncc1C(=O)N(C)c1cccnc1 [Example 40]
- mortality (Megoura viciae): at least 90%

Structure (SMILES): Cc1ncc(C(=O)N(C)c2cccnc2)c(C(F)(F)F)n1.O=S(=O)(O)C(F)(F)F [Example 44]
- mortality (Megoura viciae): at least 90%
- mortality (Myzus persicae [1]): 100%

Structure (SMILES): Cc1ncncc1C(=O)Nc1cccnc1 [Example 33]
- mortality (Megoura viciae): at least 90%

Structure (SMILES): Cc1nc(CC2CC2)ncc1C(=O)Nc1cccnc1 [Example 26]
- mortality (egg and larval) (Anthonomus grandis): at least 50%
- mortality (Megoura viciae): at least 90%
- mortality (Aphis gossypii [2]): at least 75%
- mortality (Myzus persicae [3]): at least 90%
- mortality (Aphis craccivora): at least 90%

Structure (SMILES): O=C(Nc1cccnc1)c1cccc(F)n1 [Example 2]
- mortality (egg and larval) (Anthonomus grandis): at least 50%
- mortality (Myzus persicae [1]): 100%

Structure (SMILES): Cc1nc(C(F)(F)F)ccc1C(=O)Nc1cccnc1 [Example 15]
- mortality (Aphis gossypii [4]): at least 75%
- mortality (egg and larval) (Anthonomus grandis): at least 50%
- mortality (Megoura viciae): at least 90%
- mortality (Myzus persicae [5]): at least 90%
- mortality (Aphis craccivora): at least 90%
- mortality (Myzus persicae [1]): 100%

Structure (SMILES): Cc1ncnc(C(=O)Nc2cccnc2)c1C [Example 27]
- mortality (Megoura viciae): at least 90%

Structure (SMILES): O=C(Nc1cccnc1)c1cccnn1 [Example 48]
- mortality (Myzus persicae [1]): 100%

Structure (SMILES): Cc1nc(CC(C)C)ncc1C(=O)Nc1cccnc1 [Example 25]
- mortality (egg and larval) (Anthonomus grandis): at least 50%
- mortality (Megoura viciae): at least 90%
- mortality (Myzus persicae [3]): at least 90%
- mortality (Aphis craccivora): at least 90%

Structure (SMILES): Cc1ncc(C(=O)Nc2cccnc2)c(C(F)(F)F)n1 [Example 49]
- mortality (Megoura viciae): at least 90%
- mortality (Myzus persicae [3]): at least 90%
- mortality (Aphis craccivora): at least 90%
- mortality (Myzus persicae [1]): 100%

Structure (SMILES): CCSc1ncc(Br)c(C(=O)Nc2cccnc2)n1 [Example 24]
- mortality (Megoura viciae): at least 90%

Structure (SMILES): Fc1cccc(C(=S)Nc2cccnc2)n1 [Example 10]
- mortality (Megoura viciae): at least 90%

Structure (SMILES): Cc1nc(C(C)C)ncc1C(=O)Nc1cccnc1 [Example 31]
- mortality (Megoura viciae): at least 90%
- mortality (Aphis gossypii [2]): at least 75%
- mortality (Myzus persicae [3]): at least 90%
- mortality (Aphis craccivora): at least 90%
- mortality (Myzus persicae [1]): 100%

Structure (SMILES): O=C(Nc1cccnc1)c1ccncc1C(F)(F)F [Example 20]
- mortality (Aphis gossypii [4]): at least 75%
- mortality (egg and larval) (Anthonomus grandis): at least 50%
- mortality (Megoura viciae): at least 90%

Structure (SMILES): S=C(Nc1cccnc1)c1ccccn1 [Example 8]
- mortality (Aphis gossypii [4]): at least 75%
- mortality (egg and larval) (Anthonomus grandis): at least 50%

Structure (SMILES): O=C(Nc1cccnc1)c1ncc(C(F)(F)F)cc1Cl [Example 7]
- mortality (Aphis gossypii [4]): at least 75%
- mortality (Megoura viciae): at least 90%
- mortality (Myzus persicae [5]): at least 90%
- mortality (Aphis craccivora): at least 90%

Structure (SMILES): O=C(Nc1cccnc1)c1cccnc1C(F)(F)F [Example 13]
- mortality (Megoura viciae): at least 90%

Structure (SMILES): FC(F)(F)c1cncc(NC(=S)c2ccccn2)c1 [Example 11]
- mortality (egg and larval) (Anthonomus grandis): at least 50%
- mortality (Megoura viciae): at least 90%
- mortality (Nilaparvata lugens): at least 50%

Structure (SMILES): O=C(Nc1cccnc1)c1ccnnc1.O=S(=O)(O)C(F)(F)F [Example 47]
- mortality (Megoura viciae): at least 90%
- mortality (Aphis gossypii [2]): at least 75%
- mortality (Myzus persicae [3]): at least 90%
- mortality (Aphis craccivora): at least 90%
- mortality (Myzus persicae [1]): 100%

Structure (SMILES): Cc1nc(C(C)C)ncc1C(=O)N(C)c1cccnc1 [Example 39]
- mortality (Megoura viciae): at least 90%
- mortality (Aphis craccivora): at least 90%
- mortality (Myzus persicae [1]): 100%

Structure (SMILES): Cc1c(C(=O)Nc2cccnc2)ncnc1C(F)(F)F [Example 29]
- mortality (egg and larval) (Anthonomus grandis): at least 50%
- mortality (Megoura viciae): at least 90%

Structure (SMILES): Cc1nc(CC2CC2)ncc1C(=O)N(C)c1cccnc1 [Example 36]
- mortality (egg and larval) (Anthonomus grandis): at least 50%
- mortality (Megoura viciae): at least 90%
- mortality (Aphis craccivora): at least 90%
- mortality (Myzus persicae [1]): 100%

Structure (SMILES): CCCCc1ccc(C(=S)Nc2cccnc2)nc1 [Example 9]
- mortality (Aphis gossypii [4]): at least 75%
- mortality (egg and larval) (Anthonomus grandis): at least 50%

Structure (SMILES): CN(C(=O)c1cncnc1)c1cccnc1.O=S(=O)(O)C(F)(F)F [Example 42]
- mortality (Megoura viciae): at least 90%
- mortality (Aphis gossypii [2]): at least 75%
- mortality (Myzus persicae [3]): at least 90%
- mortality (Aphis craccivora): at least 90%
- mortality (Myzus persicae [1]): 100%

Structure (SMILES): CCc1ncnc(C(=O)Nc2cccnc2)c1C [Example 28]
- mortality (Megoura viciae): at least 90%
- mortality (Aphis craccivora): at least 90%

Structure (SMILES): Cc1nc(C(F)(F)F)ncc1C(=O)N(C)c1cccnc1.O=S(=O)(O)C(F)(F)F [Example 45]
- mortality (Megoura viciae): at least 90%
- mortality (Aphis gossypii [2]): at least 75%
- mortality (Myzus persicae [3]): at least 90%
- mortality (Aphis craccivora): at least 90%
- mortality (Myzus persicae [1]): 100%

Structure (SMILES): O=C(Nc1cccnc1)c1ccc(C(F)(F)F)cn1 [Example 5]
- mortality (Aphis gossypii [4]): at least 75%
- mortality (Megoura viciae): at least 90%
- mortality (Myzus persicae [5]): at least 90%
- mortality (Aphis craccivora): at least 90%

Structure (SMILES): Cc1nc(C(C)(C)C)ncc1C(=O)Nc1cccnc1 [Example 32]
- mortality (egg and larval) (Anthonomus grandis): at least 50%
- mortality (Megoura viciae): at least 90%
